Results: paper PMC3182263
Results are given in words; binding and its absence hold for the method and conditions named. Binding seen in cells or lysates may run through a third protein. Some results given as binding are weak or reduced against the parent protein; the word gives no strength.

Amino acid sequences for entries named in this document (tags omitted). Residues count along the entry.
UniProt P23385, residues 19-1199: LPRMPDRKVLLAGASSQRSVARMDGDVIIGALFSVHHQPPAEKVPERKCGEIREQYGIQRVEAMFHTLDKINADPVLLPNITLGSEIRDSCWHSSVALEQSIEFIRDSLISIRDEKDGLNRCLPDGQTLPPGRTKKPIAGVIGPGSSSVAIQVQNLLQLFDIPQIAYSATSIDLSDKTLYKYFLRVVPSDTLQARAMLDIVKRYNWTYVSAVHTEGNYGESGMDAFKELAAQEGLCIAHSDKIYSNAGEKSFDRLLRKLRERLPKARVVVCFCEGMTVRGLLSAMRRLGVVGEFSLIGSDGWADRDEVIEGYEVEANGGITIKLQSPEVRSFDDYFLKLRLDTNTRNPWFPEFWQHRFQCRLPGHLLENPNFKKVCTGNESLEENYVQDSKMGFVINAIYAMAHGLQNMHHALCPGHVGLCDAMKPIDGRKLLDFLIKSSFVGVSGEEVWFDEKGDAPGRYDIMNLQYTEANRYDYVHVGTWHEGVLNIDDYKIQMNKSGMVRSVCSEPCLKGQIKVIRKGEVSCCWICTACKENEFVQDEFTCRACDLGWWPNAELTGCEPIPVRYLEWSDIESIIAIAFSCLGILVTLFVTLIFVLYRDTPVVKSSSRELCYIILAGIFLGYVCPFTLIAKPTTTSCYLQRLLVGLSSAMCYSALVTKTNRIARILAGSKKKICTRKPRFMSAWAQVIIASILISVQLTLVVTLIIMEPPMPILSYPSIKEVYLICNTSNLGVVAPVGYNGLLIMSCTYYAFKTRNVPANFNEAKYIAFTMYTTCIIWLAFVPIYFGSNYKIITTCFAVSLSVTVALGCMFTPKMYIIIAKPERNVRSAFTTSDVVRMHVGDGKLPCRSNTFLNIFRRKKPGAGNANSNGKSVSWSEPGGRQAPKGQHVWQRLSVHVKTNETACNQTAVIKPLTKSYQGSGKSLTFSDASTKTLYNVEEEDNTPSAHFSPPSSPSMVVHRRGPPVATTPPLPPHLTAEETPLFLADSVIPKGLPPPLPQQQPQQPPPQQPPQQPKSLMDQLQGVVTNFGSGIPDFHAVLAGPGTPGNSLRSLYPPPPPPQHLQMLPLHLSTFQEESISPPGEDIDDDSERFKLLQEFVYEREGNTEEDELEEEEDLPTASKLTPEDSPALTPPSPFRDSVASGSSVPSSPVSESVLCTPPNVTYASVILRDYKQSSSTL
UniProt Q9Z0U4, residues 20-960: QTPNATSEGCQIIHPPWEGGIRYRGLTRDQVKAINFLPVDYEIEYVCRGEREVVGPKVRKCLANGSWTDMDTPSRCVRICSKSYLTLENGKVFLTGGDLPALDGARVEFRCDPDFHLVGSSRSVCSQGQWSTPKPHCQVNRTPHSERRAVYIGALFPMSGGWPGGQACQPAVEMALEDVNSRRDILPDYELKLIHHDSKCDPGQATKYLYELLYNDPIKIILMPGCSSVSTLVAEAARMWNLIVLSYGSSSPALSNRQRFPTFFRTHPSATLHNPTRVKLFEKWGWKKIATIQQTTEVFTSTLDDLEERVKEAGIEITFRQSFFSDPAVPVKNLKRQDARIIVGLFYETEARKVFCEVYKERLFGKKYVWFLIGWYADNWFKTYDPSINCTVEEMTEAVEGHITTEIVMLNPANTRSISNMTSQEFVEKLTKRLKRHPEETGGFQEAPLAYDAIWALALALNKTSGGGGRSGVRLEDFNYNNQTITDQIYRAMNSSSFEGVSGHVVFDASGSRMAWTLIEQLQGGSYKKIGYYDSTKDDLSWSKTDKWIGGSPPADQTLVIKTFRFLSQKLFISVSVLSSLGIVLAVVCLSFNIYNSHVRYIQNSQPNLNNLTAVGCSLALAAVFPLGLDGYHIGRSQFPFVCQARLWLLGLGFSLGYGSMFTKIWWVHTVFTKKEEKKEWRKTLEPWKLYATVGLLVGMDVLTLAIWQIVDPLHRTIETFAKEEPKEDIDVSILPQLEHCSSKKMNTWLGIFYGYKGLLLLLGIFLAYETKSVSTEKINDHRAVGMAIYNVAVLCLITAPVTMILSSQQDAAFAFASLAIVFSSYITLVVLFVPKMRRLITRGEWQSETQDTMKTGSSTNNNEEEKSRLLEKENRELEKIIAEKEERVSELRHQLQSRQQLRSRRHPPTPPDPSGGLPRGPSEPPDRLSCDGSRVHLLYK

T1: GABAB receptor subunit 2 (GABAB-R2) (rat (endogenous in hippocampus)) (UniProt O88871)
T1 sequence: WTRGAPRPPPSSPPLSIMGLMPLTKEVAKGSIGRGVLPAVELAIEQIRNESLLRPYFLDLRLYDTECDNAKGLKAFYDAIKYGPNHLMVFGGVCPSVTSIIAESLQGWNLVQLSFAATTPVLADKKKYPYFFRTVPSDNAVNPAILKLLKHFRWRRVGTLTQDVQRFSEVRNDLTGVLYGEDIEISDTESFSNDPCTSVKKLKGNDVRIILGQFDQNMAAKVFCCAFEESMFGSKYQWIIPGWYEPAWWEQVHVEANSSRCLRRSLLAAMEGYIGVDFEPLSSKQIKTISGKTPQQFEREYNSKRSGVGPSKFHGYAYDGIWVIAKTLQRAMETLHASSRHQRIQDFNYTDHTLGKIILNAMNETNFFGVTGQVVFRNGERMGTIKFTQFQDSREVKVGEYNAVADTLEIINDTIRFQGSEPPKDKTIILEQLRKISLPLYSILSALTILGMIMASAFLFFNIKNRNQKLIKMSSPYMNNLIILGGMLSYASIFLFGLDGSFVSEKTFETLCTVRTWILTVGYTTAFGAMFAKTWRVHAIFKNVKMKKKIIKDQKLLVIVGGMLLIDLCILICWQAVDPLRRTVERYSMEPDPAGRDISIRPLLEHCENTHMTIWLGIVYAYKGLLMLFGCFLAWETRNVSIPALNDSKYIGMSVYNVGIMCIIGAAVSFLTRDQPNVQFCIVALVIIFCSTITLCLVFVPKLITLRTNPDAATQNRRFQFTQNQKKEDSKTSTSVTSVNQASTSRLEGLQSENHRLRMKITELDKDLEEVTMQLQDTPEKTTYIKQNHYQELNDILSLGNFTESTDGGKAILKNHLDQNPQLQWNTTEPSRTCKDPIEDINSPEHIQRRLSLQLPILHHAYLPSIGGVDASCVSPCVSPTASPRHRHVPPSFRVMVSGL

B1: GABAB receptor subunit 2 (GABAB-R2) (receptor, UniProt O88871 41-940)
chain: T1 sequence

Tests used:
[1] = target: metabotropic glutamate receptor 1 alpha (mGlu1αR) (rat (endogenous in hippocampus)) (UniProt P23385); test: co-IP; hippocampal tissue lysate from normally sleeping and 12 h sleep-deprived rats; pellet solubilised in RIPA buffer (150 mM NaCl, 50 mM Tris-HCl, 1% Nonidet P-40, 0.1% SDS, 0.5% sodium deoxycholate, pH 8.0); antibody overnight at 4°C, protein A/G-agarose beads; 7% SDS gel, blotted for GABAB-R1 or GABAB-R2
[2] = target: T1, GABAB receptor subunit 2 (GABAB-R2) (rat (endogenous in hippocampus)); test: as above

Molecule	binding [1]	binding [2]
GABAB receptor subunit 1 (GABAB-R1) (from UniProt Q9Z0U4 20-960)	binds	binds
B1	binds	
